## Library screen at single concentrations

Amino acid sequences for entries named in this document (tags omitted). Residues count along the entry.
UniProt A4I591, 1-473: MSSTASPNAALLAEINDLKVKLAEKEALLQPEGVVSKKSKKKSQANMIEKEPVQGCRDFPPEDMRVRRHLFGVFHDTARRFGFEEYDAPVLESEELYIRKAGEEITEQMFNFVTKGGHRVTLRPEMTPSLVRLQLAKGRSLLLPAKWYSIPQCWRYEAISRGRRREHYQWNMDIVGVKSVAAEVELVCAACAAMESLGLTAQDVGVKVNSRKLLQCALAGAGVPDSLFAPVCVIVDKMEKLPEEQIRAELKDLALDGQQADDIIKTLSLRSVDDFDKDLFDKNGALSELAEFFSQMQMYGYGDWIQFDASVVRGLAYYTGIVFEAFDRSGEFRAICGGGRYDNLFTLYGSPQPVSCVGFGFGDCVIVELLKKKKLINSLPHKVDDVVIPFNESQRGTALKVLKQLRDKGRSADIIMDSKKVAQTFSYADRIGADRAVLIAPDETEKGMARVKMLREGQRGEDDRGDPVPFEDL
UniProt I6X8D2, whole entry: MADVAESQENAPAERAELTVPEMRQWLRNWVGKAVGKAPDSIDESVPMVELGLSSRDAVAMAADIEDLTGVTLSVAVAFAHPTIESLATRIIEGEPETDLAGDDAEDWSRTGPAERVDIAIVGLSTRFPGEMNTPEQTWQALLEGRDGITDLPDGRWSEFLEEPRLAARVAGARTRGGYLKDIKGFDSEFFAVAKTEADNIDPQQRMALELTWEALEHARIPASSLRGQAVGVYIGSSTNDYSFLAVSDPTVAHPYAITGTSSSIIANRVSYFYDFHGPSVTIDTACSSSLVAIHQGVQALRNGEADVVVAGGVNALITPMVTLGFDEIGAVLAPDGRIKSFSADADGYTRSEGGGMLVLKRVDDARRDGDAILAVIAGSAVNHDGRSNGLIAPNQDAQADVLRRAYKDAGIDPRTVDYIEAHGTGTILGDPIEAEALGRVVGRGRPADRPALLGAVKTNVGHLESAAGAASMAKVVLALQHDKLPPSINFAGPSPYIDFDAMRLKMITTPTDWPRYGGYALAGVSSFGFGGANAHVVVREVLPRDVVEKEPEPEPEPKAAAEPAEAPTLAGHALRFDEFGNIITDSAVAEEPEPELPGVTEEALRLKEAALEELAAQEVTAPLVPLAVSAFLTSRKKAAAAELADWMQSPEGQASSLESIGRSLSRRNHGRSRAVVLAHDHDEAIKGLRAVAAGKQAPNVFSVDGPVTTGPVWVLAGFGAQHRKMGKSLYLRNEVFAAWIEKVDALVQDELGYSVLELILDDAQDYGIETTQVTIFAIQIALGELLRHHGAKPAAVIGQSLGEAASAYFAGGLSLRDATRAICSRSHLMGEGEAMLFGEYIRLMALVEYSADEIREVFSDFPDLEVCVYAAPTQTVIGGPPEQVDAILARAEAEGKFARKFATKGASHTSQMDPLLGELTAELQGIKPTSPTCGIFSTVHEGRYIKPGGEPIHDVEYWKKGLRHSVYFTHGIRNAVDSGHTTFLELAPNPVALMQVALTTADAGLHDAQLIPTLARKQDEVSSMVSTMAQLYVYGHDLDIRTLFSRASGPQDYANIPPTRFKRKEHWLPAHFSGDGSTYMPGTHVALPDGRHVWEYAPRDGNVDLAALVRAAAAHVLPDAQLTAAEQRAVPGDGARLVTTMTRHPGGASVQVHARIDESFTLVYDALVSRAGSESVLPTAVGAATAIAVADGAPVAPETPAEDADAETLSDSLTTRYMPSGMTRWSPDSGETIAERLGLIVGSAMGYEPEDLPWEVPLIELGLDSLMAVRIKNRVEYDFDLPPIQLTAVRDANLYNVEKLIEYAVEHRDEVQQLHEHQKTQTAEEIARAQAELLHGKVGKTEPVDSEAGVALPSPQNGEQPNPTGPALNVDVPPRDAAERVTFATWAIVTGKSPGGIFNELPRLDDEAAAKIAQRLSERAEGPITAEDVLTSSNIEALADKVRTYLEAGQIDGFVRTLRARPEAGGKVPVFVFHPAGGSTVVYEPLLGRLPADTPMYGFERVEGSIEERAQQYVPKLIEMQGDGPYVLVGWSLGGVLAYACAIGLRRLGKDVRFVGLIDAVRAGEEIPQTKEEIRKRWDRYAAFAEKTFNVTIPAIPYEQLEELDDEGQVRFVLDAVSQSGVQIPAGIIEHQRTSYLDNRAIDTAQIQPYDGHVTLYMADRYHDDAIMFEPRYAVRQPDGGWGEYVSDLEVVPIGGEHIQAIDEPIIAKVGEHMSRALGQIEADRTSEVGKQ
UniProt P9WFT3, whole entry: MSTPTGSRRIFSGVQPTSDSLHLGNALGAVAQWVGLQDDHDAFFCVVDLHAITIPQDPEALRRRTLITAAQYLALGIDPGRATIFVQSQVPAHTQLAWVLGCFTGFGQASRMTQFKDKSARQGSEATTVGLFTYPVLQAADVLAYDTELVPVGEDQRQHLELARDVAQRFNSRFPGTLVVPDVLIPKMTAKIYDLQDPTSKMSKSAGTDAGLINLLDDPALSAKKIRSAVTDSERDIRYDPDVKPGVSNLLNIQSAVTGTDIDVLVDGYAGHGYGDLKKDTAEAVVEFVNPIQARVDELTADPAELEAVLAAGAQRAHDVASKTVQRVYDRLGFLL
UniProt Q4DA54, 1-478: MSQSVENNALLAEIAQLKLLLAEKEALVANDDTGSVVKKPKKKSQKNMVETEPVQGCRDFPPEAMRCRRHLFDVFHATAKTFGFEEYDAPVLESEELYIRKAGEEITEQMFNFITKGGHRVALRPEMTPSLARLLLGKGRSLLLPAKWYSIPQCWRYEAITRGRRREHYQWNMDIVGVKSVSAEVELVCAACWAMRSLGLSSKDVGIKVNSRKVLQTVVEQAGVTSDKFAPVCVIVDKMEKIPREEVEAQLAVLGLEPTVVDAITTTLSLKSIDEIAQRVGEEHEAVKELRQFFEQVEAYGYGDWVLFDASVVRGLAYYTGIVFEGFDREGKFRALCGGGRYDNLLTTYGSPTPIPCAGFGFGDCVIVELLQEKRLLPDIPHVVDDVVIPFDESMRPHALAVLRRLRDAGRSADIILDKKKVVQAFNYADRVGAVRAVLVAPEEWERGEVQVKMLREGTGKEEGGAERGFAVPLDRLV

LiHisRS: 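Histidine-tRNA ligase, Leishmania infantum (UniProt A4I591). Enzyme assay of histidyl-tRNA synthetase; the read-out is not stated. Concentration: 30 µM. Higher reads as stronger inhibition (inferred: compounds with an IC50 in retests scored well above the rest). The assay is labelled LdHisRS but filed under L. infantum. Of about 69,000 compounds tested this way, about 410 (0.6%) reached 50% or more in at least one test.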
Pks13 thioesterase: 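Enzyme assay of the thioesterase domain of polyketide synthase 13; the read-out is not stated. Target: Polyketide synthase Pks13, Mycobacterium tuberculosis (UniProt I6X8D2). Concentration: 30 µM. The record gives no direction; the compounds picked for IC50 retests had high values, so higher reads as stronger inhibition. Of about 67,000 compounds tested this way, about 300 (0.46%) reached 50% or more in at least one test.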
MtTrpRS: 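Enzyme assay of tryptophanyl-tRNA synthetase; the read-out is not stated. Target: Tryptophan-tRNA ligase, Mycobacterium tuberculosis (UniProt P9WFT3). Tested at 10 µM. Higher most likely means stronger inhibition; the record gives no direction and few retests gave an IC50. Size under these conditions: about 65,000 compounds, about 64 of them at 50% or above in at least one test.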
TcHisRS: 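Histidine-tRNA ligase, Trypanosoma cruzi CL Brener (UniProt Q4DA54). Enzyme assay of histidyl-tRNA synthetase; the read-out is not stated. Tested at 30 µM. The record gives no direction; compounds that gave an IC50 in retests scored well above the rest, so higher reads as stronger inhibition. About 69,000 compounds were tested under these conditions; 0.045% (about 31) showed 50% or more at least once.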

Each number is a percent effect as filed.
The controls that fix the scale are not given in the record; negative values are as filed.
Compounds were drawn at random from those tested, without regard to their results.

CCC(Nc1ccc(CCN2CCOCC2)cc1)C(N)=O (stereo not given) gave LiHisRS: 10.84%; Pks13 thioesterase: -5.886%; MtTrpRS: 2.295%; TcHisRS: 7.463%.
Cc1cnn(CC2CCCN2C(=O)CCc2ccc3c(c2)OCO3)c1 (stereo not given) gave LiHisRS: 7.965%; Pks13 thioesterase: -27.82%; MtTrpRS: 20.19%; TcHisRS: 4.373%.
O=C1COc2c(cccc2C(=O)N2CCCC2Cn2cccn2)N1 (stereo not given) gave LiHisRS: 8.264%; Pks13 thioesterase: -2.973%; MtTrpRS: -0.4068%; TcHisRS: 0.8403%.
Cc1cc(CN(C)Cc2ncc(C(C)(C)C)o2)no1 gave LiHisRS: -1.064%; Pks13 thioesterase: 20.54%; MtTrpRS: -2.839%; TcHisRS: 12.12%.
CC(C)N(C(=O)Cn1nc2n(c1=O)CCCCC2)C1CCC1 gave LiHisRS: 14.29%; Pks13 thioesterase: -7.213%; MtTrpRS: -3.024%; TcHisRS: 0%.
CN(C)c1nccc(-c2cnc(N(C)C)[nH]c2=O)n1 gave LiHisRS: 25.71%; Pks13 thioesterase: 16.62%; TcHisRS: 11.3%.
Cc1oc(C)c(C(=O)NS(=O)(=O)c2ccc3c(c2)OCCCO3)c1C gave LiHisRS: 21.67%; Pks13 thioesterase: -32.58%; MtTrpRS: -1.262%; TcHisRS: 2.941%.
Cc1nn(C)c(N2CCOCC2)c1CNCC1CCN(C2CC2)C1 (stereo not given) gave LiHisRS: 0%; Pks13 thioesterase: 22.75%; MtTrpRS: -0.5093%; TcHisRS: 3.896%.
CN(Cc1ccccc1)c1ccc(C(F)(F)F)cn1 gave LiHisRS: 27.27%; Pks13 thioesterase: -14.56%; MtTrpRS: -2.422%; TcHisRS: 3.261%.
O=C(NCCN1CCCC1)c1nc2c(o1)CN(c1ncccn1)C2 gave LiHisRS: -1.724%; Pks13 thioesterase: 5.649%; MtTrpRS: -2.05%; TcHisRS: 3.797%.
Cc1nc(C)n(CC2CCCCN2CC(=O)NC(C2CC2)C2CC2)n1 (stereo not given) gave LiHisRS: 10.71%; Pks13 thioesterase: -1.152%; MtTrpRS: -0.2596%; TcHisRS: 0%.
CC(C)c1noc(CN2CCC3(CCCO3)CCC2=O)n1 (stereo not given) gave LiHisRS: 4.854%; Pks13 thioesterase: -8.657%; MtTrpRS: -2.842%; TcHisRS: 4.564%.
O=C(NCC(F)(F)F)c1ccc(-n2cncn2)nn1 gave LiHisRS: 9.333%; Pks13 thioesterase: -9.45%; MtTrpRS: -2.592%; TcHisRS: 2.646%.
COC(=O)C1CCCN1CC(=O)NCc1ccc(OCC(N)=O)cc1 (stereo not given) gave LiHisRS: 13.27%; Pks13 thioesterase: -22.7%; MtTrpRS: 1.511%; TcHisRS: -2.212%.
CC(=O)N1CCCN(C(=O)Cc2ccc3c(c2)OCO3)CC1 gave LiHisRS: 17.6%; Pks13 thioesterase: -17.51%; MtTrpRS: -0.1505%; TcHisRS: 1.961%.
Cc1ccccc1CN(C)C(=O)CN1CCCCC1Cn1cncn1 (stereo not given) gave LiHisRS: 16.13%; Pks13 thioesterase: -6.348%; MtTrpRS: 0.2863%; TcHisRS: 10.12%.
Clc1ccccc1CN1CCc2nc(C3CCNCC3)ncc2C1 gave LiHisRS: 46%; Pks13 thioesterase: -11.26%; TcHisRS: 23.97%.
Cc1nn(C)c2nc(N3CCNC(=O)C3Cc3ccccc3)sc12 (stereo not given) gave LiHisRS: 21.92%; Pks13 thioesterase: -18.13%; MtTrpRS: 0.5961%; TcHisRS: 10.93%.
CN1CCN(C(=O)CCCc2ccccc2)CC(O)(Cn2cccn2)C1 (stereo not given) gave LiHisRS: 15.94%; Pks13 thioesterase: 11.2%; MtTrpRS: -4.838%; TcHisRS: 7.576%.
O=C(NC1CC1)[C@@H]1C[C@@H]2CCN(Cc3ccccc3)C[C@H]2O1 gave LiHisRS: 23%; Pks13 thioesterase: -6.548%; MtTrpRS: -3.867%; TcHisRS: 10.2%.
COCc1noc(CN2CCC3(CC2)[C@H](O)C[C@@H]3OC)n1 gave LiHisRS: 1.399%; Pks13 thioesterase: -11.54%; MtTrpRS: -0.3132%; TcHisRS: 7.463%.

Data taken from ChEMBL document CHEMBL3988442, “University of Dundee, Small-Polar-MMV Screening Library” (2021).